Data on one substance can be found in article PMC6996959.

The chains behind the UniProt entries cited, without tags or fusion partners.
UniProt Q9QZL0: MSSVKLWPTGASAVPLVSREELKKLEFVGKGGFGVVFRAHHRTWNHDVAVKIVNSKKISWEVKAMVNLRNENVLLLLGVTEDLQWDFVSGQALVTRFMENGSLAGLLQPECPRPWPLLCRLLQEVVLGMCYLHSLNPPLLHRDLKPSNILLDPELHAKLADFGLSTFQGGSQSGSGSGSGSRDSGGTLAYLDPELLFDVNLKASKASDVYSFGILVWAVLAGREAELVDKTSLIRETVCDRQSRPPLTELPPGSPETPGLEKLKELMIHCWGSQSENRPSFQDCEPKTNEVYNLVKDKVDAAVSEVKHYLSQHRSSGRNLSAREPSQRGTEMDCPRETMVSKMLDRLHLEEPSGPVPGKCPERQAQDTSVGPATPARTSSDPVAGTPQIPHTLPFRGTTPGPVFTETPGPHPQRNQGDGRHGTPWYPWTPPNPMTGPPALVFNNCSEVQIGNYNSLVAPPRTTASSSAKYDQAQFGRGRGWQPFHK

This test has as its target p62/SQSTM1 (endogenous, mouse heart) (mouse (endogenous in mouse heart)) (UniProt Q64337). Briefly: co-IP; co-immunoprecipitation from young and aged mouse hearts, sham, ischemia (30 min) or ischemia followed by 4 hr of reperfusion; also from aged hearts after Nec-1, Ad-sh-p62 or metformin and from RIP3 KO hearts; which protein was precipitated is not told in the text shown.

Results are given in words; binding and its absence hold for the method and conditions named. Binding seen in cells or lysates may run through a third protein. Some binding calls cover weakened binding; strength is not graded here.

In the case of “receptor-interacting protein kinase 3 (endogenous, mouse heart) (from UniProt Q9QZL0 1-486)”, the binding entry was “binds”.
